Experimental data: PubChem BioAssay AID1159578 (Peter MacCallum Cancer Centre, 2015)

Assay: 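siRNA pools altering how lymphatic endothelial cells close a scratch wound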 (primary screen)
Cells: human lymphatic endothelial cells
Reagent: siRNA pool against human genes, 40 nM
Timing: 48 h after transfection
Measurement: 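Cells stained with dye and imaged after a scratch; covered wound area and nuclei counted, duplicates averaged, migration set against mock wells and turned into a robust z-score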
Reading the numbers: migration robust z-score: higher = faster migration into the scratch; migration relative to mock: higher = more scratch area covered than mock; nuclei per well: higher = more cells in the well
Rule for the call: 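Pools averaging fewer than 3300 nuclei are never called; remaining pools count as changed when migration robust z lies outside -2 to 2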
Meaning of the calls: active = migration changed; inactive = no migration change, or too few cells
Here is one part, drawn at random, of about 18,000 deposited reagents. About 1,030 of all reagents (5.7%) count as active. 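Inactive calls also include pools with fewer than 3300 nuclei, whose migration was not assessed.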 The raw values are shown without normalisation.

The first 6 entries as a preview:
Target gene,migration robust z-score,migration class with cell-count check,migration relative to mock,"nuclei per well, duplicate mean",call
B3GNT5,-0.78,migration z between -2 and 2; enough cells,0.66,6554,inactive
CIPC (CLOCK interacting pacemaker),-0.18,migration z between -2 and 2; enough cells,0.84,5676,inactive
"POLG2 (DNA polymerase gamma 2, accessory subunit)",0.75,migration z between -2 and 2; enough cells,0.95,5074,inactive
SVOPL (SVOP like),-1.27,migration z between -2 and 2; enough cells,0.55,7118,inactive
RMDN2 (regulator of microtubule dynamics 2),0.96,migration z between -2 and 2; enough cells,1.13,6030,inactive
VIP (vasoactive intestinal peptide),0.37,migration z between -2 and 2; enough cells,0.98,6236,inactive

The listing, from the start:
Target gene,migration robust z-score,migration class with cell-count check,migration relative to mock,"nuclei per well, duplicate mean",call
B3GNT5,-0.78,migration z between -2 and 2; enough cells,0.66,6554,inactive
CIPC (CLOCK interacting pacemaker),-0.18,migration z between -2 and 2; enough cells,0.84,5676,inactive
"POLG2 (DNA polymerase gamma 2, accessory subunit)",0.75,migration z between -2 and 2; enough cells,0.95,5074,inactive
SVOPL (SVOP like),-1.27,migration z between -2 and 2; enough cells,0.55,7118,inactive
RMDN2 (regulator of microtubule dynamics 2),0.96,migration z between -2 and 2; enough cells,1.13,6030,inactive
VIP (vasoactive intestinal peptide),0.37,migration z between -2 and 2; enough cells,0.98,6236,inactive
ADGRL4 (adhesion G protein-coupled receptor L4),-0.1,migration z between -2 and 2; enough cells,0.78,6057,inactive
SATL1 (spermidine/spermine N1-acetyl transferase like 1),1.25,migration z between -2 and 2; enough cells,1.22,6234,inactive
SCGB3A1 (secretoglobin family 3A member 1),-1.36,migration z between -2 and 2; enough cells,0.53,5698,inactive
KCNJ5 (potassium inwardly rectifying channel subfamily J member 5),-0.08,migration z between -2 and 2; enough cells,0.79,5642,inactive
ODC1 (ornithine decarboxylase 1),-0.29,migration z between -2 and 2; enough cells,0.75,6087,inactive
PPT2 (palmitoyl-protein thioesterase 2),-0.65,migration z between -2 and 2; enough cells,0.68,5500,inactive
CPSF4 (cleavage and polyadenylation specific factor 4),-0.12,migration z between -2 and 2; enough cells,0.86,6124,inactive
SOX3 (SRY-box transcription factor 3),-0.13,migration z between -2 and 2; enough cells,0.78,5996,inactive
ZBTB33 (zinc finger and BTB domain containing 33),-0.37,migration z between -2 and 2; enough cells,0.79,5236,inactive
DHX36 (DEAH-box helicase 36),-0.47,migration z between -2 and 2; enough cells,0.72,3906,inactive
AMER3 (APC membrane recruitment protein 3),-0.3,migration z between -2 and 2; enough cells,0.8,4176,inactive
TNFRSF19 (TNF receptor superfamily member 19),1.27,migration z between -2 and 2; enough cells,1.05,6033,inactive
ARHGAP1 (Rho GTPase activating protein 1),-0.2,migration z between -2 and 2; enough cells,0.84,6480,inactive
VDR (vitamin D receptor),-1.73,migration z between -2 and 2; enough cells,0.47,5034,inactive
RGMB (repulsive guidance molecule BMP co-receptor b),0.77,migration z between -2 and 2; enough cells,1.08,6140,inactive
PHF11 (PHD finger protein 11),0.55,migration z between -2 and 2; enough cells,0.91,6614,inactive
CA6 (carbonic anhydrase 6),-0.06,migration z between -2 and 2; enough cells,0.8,5240,inactive
PAPOLG (poly(A) polymerase gamma),-1.01,migration z between -2 and 2; enough cells,0.61,3728,inactive
CCR8 (C-C motif chemokine receptor 8),1.92,migration z between -2 and 2; enough cells,1.17,6666,inactive
C16orf82 (chromosome 16 open reading frame 82),1.04,migration z between -2 and 2; enough cells,1.16,5786,inactive
NTF4 (neurotrophin 4),0.18,migration z between -2 and 2; enough cells,0.84,5069,inactive
ALDH5A1 (aldehyde dehydrogenase 5 family member A1),0.13,migration z between -2 and 2; enough cells,0.83,5180,inactive
TTC8 (tetratricopeptide repeat domain 8),-0.27,migration z between -2 and 2; enough cells,0.81,4676,inactive
JMJD8 (jumonji domain containing 8),-0.3,migration z between -2 and 2; enough cells,0.8,3370,inactive
CTSG (cathepsin G),0.28,migration z between -2 and 2; enough cells,0.86,5595,inactive
ZFR (zinc finger RNA binding protein),-1.33,migration z between -2 and 2; enough cells,0.54,6836,inactive
SLC22A6,-1.89,migration z between -2 and 2; enough cells,0.44,6041,inactive
BCAS4 (breast carcinoma amplified sequence 4),-0.24,migration z between -2 and 2; enough cells,0.82,5682,inactive
NTSR1 (neurotensin receptor 1),-1.14,migration z between -2 and 2; enough cells,0.58,4883,inactive
HOXA7 (homeobox A7),0.94,migration z between -2 and 2; enough cells,0.98,5496,inactive
TGFBR1 (transforming growth factor beta receptor 1),-0.29,migration z between -2 and 2; enough cells,0.75,6136,inactive
SFRP1 (secreted frizzled related protein 1),0.6,migration z between -2 and 2; enough cells,0.92,5724,inactive
HDGF (heparin binding growth factor),-1.17,migration z between -2 and 2; enough cells,0.58,4391,inactive
SLC30A8,0.18,migration z between -2 and 2; enough cells,0.84,5692,inactive
GXYLT2 (glucoside xylosyltransferase 2),0.12,migration z between -2 and 2; enough cells,0.92,5714,inactive
CARD19 (caspase recruitment domain family member 19),-0.32,migration z between -2 and 2; enough cells,0.8,5630,inactive
SLC12A5,0.93,migration z between -2 and 2; enough cells,0.99,5650,inactive
ASCL1 (achaete-scute family bHLH transcription factor 1),-0.24,migration z between -2 and 2; enough cells,0.76,5260,inactive
CEP57L1 (centrosomal protein 57 like 1),-0.26,migration z between -2 and 2; enough cells,0.82,6226,inactive
KRT10 (keratin 10),2.12,migration z above 2; enough cells,1.44,5920,active
PIDD1 (p53-induced death domain protein 1),-0.36,migration z between -2 and 2; enough cells,0.79,5332,inactive
DIABLO (diablo IAP-binding mitochondrial protein),-0.68,migration z between -2 and 2; enough cells,0.68,4766,inactive
DNAI4 (dynein axonemal intermediate chain 4),-3.58,under 3300 nuclei; migration not judged,-0.05,2419,inactive
PCIF1 (phosphorylated CTD interacting factor 1),0.35,migration z between -2 and 2; enough cells,0.98,6084,inactive
PREX2,0.32,migration z between -2 and 2; enough cells,0.97,6722,inactive
DUSP8 (dual specificity phosphatase 8),-0.42,migration z between -2 and 2; enough cells,0.73,5238,inactive
TAS2R60 (taste 2 receptor member 60),0.86,migration z between -2 and 2; enough cells,1.11,7216,inactive
UTS2 (urotensin 2),1.59,migration z between -2 and 2; enough cells,1.29,5326,inactive
ITIH4 (inter-alpha-trypsin inhibitor heavy chain 4),1.32,migration z between -2 and 2; enough cells,1.23,5042,inactive
NR0B2 (nuclear receptor subfamily 0 group B member 2),0.29,migration z between -2 and 2; enough cells,0.86,3743,inactive
UBE2D4 (ubiquitin conjugating enzyme E2 D4),1.82,migration z between -2 and 2; enough cells,1.15,5220,inactive
